Laboratory results as given in article doi:10.1101/2021.01.18.427104.
These are yes or no findings as the source states them, for the method shown. For part of these data: In cells and extracts the contact can be indirect. Some entries that bind do so weakly or less than the wild type. For part of these data: Sequences can lack the tags named with a protein.

Chains of the proteins cited; added tags and fusions are not shown.
UniProt P0C746, whole entry: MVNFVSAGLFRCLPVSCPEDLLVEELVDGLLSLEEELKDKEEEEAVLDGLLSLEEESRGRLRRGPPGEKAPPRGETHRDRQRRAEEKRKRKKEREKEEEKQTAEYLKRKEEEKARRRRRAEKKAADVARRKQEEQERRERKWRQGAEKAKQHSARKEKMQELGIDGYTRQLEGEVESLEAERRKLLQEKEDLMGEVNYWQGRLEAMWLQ
UniProt P26368, whole entry: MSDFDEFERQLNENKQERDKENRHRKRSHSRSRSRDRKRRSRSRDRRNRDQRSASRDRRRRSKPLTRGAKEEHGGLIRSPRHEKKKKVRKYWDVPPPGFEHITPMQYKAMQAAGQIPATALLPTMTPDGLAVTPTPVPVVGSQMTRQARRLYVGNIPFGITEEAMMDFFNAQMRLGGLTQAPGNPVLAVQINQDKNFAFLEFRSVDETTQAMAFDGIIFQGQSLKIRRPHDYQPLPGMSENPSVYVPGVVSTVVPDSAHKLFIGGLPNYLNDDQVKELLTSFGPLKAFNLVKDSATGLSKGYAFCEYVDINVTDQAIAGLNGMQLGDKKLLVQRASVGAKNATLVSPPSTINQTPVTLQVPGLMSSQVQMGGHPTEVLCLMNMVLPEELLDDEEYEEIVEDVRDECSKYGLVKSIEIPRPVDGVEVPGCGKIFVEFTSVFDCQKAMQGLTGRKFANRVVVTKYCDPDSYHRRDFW

Experiments:
[1] = molecular target: HBZ (HTLV-1), yeast two-hybrid clones (HTLV-1) (UniProt P0C746); assay: two-hybrid
[2] = molecular target: U2AF65, Gaussia luciferase fragment fusion (human), P26368; assay: split reporter; settings: remark: other sources report otherwise
[3] = molecular target: Tax (HTLV-1), Gaussia luciferase fragment fusion (HTLV-1) (UniProt P03409); assay: split reporter

B1: complementary factor for APOBEC-1 (A1CF), yeast two-hybrid clone (protein, UniProt Q9NQ94 1-594)
chain: MESNHKSGDGLSGTQKEAALRALVQRTGYSLVQENGQRKYGGPPPGWDAAPPERGCEIFIGKLPRDLFEDELIPLCEKIGKIYEMRMMMDFNGNNRGYAFVTFSNKVEAKNAIKQLNNYEIRNGRLLGVCASVDNCRLFVGGIPKTKKREEILSEMKKVTEGVVDVIVYPSAADKTKNRGFAFVEYESHRAAAMARRKLLPGRIQLWGHGIAVDWAEPEVEVDEDTMSSVKILYVRNLMLSTSEEMIEKEFNNIKPGAVERVKKIRDYAFVHFSNREDAVEAMKALNGKVLDGSPIEVTLAKPVDKDSYVRYTRGTGGRGTMLQGEYTYSLGQVYDPTTTYLGAPVFYAPQTYAAIPSLHFPATKGHLSNRAIIRAPSVREIYMNVPVGAAGVRGLGGRGYLAYTGLGRGYQVKGDKREDKLYDILPGMELTPMNPVTLKPQGIKLAPQILEEICQKNNWGQPVYQLHSAIGQDQRQLFLYKITIPALASQNPAIHPFTPPKLSAFVDEAKTYAAEYTLQTLGIPTDGGDGTMATAAAAATAFPGYAVPNATAPVSAAQLKQAVTLGQDLAAYTTYEVYPTFAVTARGDGYGTF
binding [1]: binds

B2: U2AF35, Gaussia luciferase fragment fusion, Q01081 1-240 (protein)
chain: MAEYLASIFGTEKDKVNCSFYFKIGACRHGDRCSRLHNKPTFSQTIALLNIYRNPQNSSQSADGLRCAVSDVEMQEHYDEFFEEVFTEMEEKYGEVEEMNVCDNLGDHLVGNVYVKFRREEDAEKAVIDLNNRWFNGQPIHAELSPVTDFREACCRQYEMGECTRGGFCNFMHLKPISRELRRELYGRRRKKHRSRSRSRERRSRSRDRGRGGGGGGGGGGGGRERDRRRSRDRERSGRF
binding [2]: binds

B3: U2AF35, Gaussia luciferase fragment fusion (protein, UniProt Q01081 1-240)
chain: MAEYLASIFGTEKDKVNCSFYFKIGACRHGDRCSRLHNKPTFSQTIALLNIYRNPQNSSQSADGLRCAVSDVEMQEHYDEFFEEVFTEMEEKYGEVEEMNVCDNLGDHLVGNVYVKFRREEDAEKAVIDLNNRWFNGQPIHAELSPVTDFREACCRQYEMGECTRGGFCNFMHLKPISRELRRELYGRRRKKHRSRSRSRERRSRSRDRGRGGGGGGGGGGGGRERDRRRSRDRERSGRF
binding [3]: no binding
